Article doi:10.1101/278911
No constants are given. Whether binding was seen depends on the method and setting. Binding seen in cells or lysates may run through a third protein. Some results given as binding are weak or reduced against the parent protein; the word gives no strength.

Chains of the proteins cited; added tags and fusions are not shown.
UniProt Q09137: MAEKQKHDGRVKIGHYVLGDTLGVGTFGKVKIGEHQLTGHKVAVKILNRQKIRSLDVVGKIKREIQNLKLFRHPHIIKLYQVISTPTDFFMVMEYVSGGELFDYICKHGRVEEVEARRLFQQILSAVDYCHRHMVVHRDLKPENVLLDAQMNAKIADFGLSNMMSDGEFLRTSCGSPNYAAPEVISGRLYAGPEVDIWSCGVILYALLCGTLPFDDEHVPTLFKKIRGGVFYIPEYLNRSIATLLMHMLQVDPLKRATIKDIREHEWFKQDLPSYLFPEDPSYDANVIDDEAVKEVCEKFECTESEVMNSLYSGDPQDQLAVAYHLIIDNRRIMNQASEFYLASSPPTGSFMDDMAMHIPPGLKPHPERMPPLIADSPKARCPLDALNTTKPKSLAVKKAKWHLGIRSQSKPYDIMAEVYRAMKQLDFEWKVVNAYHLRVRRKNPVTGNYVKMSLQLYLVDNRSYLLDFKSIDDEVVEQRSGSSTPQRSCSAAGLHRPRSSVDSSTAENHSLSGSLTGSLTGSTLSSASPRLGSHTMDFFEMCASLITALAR
UniProt P54645: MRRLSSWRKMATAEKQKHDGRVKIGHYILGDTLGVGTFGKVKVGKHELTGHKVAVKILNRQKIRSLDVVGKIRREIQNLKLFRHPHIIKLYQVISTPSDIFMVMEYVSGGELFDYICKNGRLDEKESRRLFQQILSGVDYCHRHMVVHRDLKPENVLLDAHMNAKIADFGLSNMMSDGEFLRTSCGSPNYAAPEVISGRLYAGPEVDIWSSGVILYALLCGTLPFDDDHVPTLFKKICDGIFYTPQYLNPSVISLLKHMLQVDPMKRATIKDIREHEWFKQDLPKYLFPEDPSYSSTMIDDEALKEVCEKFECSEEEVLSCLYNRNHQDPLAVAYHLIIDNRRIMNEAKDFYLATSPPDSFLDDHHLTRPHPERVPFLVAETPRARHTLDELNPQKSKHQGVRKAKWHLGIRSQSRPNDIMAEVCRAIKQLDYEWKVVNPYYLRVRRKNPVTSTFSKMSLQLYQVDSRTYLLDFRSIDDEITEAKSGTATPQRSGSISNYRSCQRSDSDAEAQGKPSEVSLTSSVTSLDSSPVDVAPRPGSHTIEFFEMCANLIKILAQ

Legend:
[1] = biological target: AMP-activated protein kinase α2 subunit (rat (endogenous in cultured rat podocytes)) (UniProt Q09137); test: co-IP
[2] = biological target: AMP-activated protein kinase α1 subunit (rat (endogenous in cultured rat podocytes)) (UniProt P54645); test: co-IP

B1: TRPC6 channel (protein, UniProt Q99N78 1-930)
chain: MSQSPGFVTRRGGSPKAAPGAGARRNESQDYLLMDELGDDGYPQLQQPPYGYYPSFRGNENRLTHRRQTVLREKGRRLANRGPAYMFNDHSTSLSIEEERFLDAAEYGNIPVVRKMLEECLSLNVNCVDYMGQNALQLAVANEHLEITELLLKKENLSRVGDALLLAISKGYVRIVEAILNHPAFAEGKRLATSPSQSELQQDDFYAYDEDGTRFSHDVTPIILAAHCQEYEIVHTLLRKGARIERPHDYFCKCTECSQKQKHDSFSHSRSRINAYKGLASPAYLSLSSEDPVMTALELSNELAVLANIEKEFKNDYRKLSMQCKDFVVGLLDLCRNTEEVEAILNGDAETRQPGDLARPNLSRLKLAIKYEVKKFVAHPNCQQQLLSIWYENLSGLRQQTMAVKFLVVLAVAIGLPFLALIYWCAPCSKMGKILRGPFMKFVAHAASFTIFLGLLVMNAADRFEGTKLLPNETSTDNARQLFRMKTSCFSWMEMLIISWVIGMIWAECKEIWTQGPKEYLFELWNMLDFGMLAIFAASFIARFMAFWHASKAQSIIDANDTLKDLTKVTLGDNVKYYNLARIKWDPTDPQIISEGLYAIAVVLSFSRIAYILPANESFGPLQISLGRTVKDIFKFMVIFIMVFVAFMIGMFNLYSYYIGAKQNEAFTTVEESFKTLFWAIFGLSEVKSVVINYNHKFIENIGYVLYGVYNVTMVIVLLNMLIAMINSSFQEIEDDADVEWKFARAKLWFSYFEEGRTLPVPFNLVPSPKSLLYLLLKFKKWMSELIQGHKKGFQEDAEMNKRNEEKKFGILGSHEDLSKFSLDRNQLAHNKQSSTRSSEDFHLNSFSNPPRQYQKIMKRLIKRYVLQAQIDKESDEVNEGELKEIKQDISSLRYELLEEKSQNTEDLAELIRKLGERLSLESKQEESRR
- binding [1]: binds
- binding [2]: binds
